No constants are given. Whether binding was seen depends on the method and setting. Binding seen in cells or lysates may run through a third protein. A yes stands for co-enrichment or nearness to the bait. Other partners may have been found. Sequences can lack the tags named with a protein.
T1: C-terminal FLAG-tagged COUP-TFII (pIRES-COUP-TFII-FLAG), expressed in MCF-7 cells (human) (UniProt P24468)
T1 sequence: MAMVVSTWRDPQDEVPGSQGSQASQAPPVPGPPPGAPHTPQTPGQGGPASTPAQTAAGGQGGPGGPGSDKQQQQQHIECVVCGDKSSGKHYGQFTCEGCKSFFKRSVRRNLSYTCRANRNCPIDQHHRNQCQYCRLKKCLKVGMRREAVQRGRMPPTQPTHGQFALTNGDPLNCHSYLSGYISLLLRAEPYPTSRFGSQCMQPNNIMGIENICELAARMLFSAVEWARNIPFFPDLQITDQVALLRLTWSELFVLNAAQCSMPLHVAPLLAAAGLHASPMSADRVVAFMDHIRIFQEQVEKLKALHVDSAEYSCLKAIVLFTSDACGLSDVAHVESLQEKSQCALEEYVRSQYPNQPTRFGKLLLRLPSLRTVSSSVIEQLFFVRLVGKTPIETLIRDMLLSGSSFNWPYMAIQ

Chains of the proteins cited; added tags and fusions are not shown. Residues count along the entry.
UniProt P07305: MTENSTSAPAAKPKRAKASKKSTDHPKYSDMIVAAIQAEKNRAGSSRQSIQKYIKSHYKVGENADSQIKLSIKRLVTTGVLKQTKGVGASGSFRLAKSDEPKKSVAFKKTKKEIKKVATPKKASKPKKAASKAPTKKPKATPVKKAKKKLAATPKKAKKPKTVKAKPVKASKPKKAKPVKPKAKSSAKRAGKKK
UniProt P09874: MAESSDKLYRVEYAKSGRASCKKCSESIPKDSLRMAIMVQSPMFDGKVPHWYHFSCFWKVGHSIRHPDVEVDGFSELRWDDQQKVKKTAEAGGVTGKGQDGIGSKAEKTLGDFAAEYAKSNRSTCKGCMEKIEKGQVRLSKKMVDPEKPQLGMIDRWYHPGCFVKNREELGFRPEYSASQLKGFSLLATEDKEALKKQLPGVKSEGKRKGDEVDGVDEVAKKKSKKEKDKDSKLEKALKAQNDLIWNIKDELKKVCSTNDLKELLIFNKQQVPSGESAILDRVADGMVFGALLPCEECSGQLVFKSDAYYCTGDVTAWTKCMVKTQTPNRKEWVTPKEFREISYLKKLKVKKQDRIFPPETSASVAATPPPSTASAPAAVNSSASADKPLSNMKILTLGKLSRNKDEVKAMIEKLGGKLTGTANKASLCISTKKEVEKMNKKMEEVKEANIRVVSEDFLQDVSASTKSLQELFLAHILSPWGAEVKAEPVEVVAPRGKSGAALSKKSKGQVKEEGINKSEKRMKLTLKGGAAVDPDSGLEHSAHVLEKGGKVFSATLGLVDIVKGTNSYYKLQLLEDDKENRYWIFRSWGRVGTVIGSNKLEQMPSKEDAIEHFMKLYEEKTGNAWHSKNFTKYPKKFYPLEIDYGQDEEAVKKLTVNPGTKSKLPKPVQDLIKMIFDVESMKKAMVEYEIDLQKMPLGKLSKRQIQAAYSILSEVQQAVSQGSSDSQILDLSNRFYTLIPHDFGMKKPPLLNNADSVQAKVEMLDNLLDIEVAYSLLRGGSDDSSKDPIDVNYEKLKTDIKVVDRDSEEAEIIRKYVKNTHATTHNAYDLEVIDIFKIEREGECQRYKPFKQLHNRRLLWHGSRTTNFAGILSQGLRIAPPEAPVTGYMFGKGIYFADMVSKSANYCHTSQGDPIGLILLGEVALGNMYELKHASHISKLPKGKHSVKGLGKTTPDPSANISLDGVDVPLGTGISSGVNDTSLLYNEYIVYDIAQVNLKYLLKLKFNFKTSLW
UniProt P11387: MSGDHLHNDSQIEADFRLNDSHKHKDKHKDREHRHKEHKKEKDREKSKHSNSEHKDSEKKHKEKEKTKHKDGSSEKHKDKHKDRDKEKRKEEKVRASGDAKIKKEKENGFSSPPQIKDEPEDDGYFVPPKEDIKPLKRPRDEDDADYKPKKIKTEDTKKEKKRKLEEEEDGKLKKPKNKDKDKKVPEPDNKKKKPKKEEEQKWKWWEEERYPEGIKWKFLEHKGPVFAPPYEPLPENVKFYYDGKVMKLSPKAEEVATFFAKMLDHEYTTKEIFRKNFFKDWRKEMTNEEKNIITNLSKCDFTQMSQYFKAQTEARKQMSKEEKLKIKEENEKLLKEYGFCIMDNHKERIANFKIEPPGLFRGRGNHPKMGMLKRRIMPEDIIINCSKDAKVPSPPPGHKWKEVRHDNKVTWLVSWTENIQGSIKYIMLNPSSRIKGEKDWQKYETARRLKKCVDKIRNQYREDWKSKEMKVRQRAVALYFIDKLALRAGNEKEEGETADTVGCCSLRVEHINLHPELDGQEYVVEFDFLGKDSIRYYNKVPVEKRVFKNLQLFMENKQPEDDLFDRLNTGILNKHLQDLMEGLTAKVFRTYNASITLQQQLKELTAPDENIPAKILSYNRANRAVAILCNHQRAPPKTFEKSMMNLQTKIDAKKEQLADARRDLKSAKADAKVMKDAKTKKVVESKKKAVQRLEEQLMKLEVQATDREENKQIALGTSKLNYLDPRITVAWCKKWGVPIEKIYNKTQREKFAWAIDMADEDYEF
UniProt Q13242: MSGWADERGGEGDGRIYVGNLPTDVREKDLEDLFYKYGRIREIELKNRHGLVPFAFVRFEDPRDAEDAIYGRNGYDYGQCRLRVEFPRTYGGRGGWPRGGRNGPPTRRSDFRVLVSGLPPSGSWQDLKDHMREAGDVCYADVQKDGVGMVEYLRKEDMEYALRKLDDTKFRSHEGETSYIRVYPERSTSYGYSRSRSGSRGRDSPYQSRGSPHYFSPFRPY
UniProt P18754: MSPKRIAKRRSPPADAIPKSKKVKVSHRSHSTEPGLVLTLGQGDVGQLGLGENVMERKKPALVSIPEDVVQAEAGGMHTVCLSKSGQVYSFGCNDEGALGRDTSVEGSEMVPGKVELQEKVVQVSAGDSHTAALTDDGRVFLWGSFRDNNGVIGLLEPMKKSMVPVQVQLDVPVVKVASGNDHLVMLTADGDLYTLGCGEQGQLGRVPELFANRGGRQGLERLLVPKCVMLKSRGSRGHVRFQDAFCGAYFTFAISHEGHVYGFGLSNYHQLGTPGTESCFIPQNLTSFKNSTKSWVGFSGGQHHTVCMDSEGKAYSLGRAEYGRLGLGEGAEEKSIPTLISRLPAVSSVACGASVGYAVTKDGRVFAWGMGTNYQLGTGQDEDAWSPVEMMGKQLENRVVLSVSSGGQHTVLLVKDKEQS
UniProt P11142: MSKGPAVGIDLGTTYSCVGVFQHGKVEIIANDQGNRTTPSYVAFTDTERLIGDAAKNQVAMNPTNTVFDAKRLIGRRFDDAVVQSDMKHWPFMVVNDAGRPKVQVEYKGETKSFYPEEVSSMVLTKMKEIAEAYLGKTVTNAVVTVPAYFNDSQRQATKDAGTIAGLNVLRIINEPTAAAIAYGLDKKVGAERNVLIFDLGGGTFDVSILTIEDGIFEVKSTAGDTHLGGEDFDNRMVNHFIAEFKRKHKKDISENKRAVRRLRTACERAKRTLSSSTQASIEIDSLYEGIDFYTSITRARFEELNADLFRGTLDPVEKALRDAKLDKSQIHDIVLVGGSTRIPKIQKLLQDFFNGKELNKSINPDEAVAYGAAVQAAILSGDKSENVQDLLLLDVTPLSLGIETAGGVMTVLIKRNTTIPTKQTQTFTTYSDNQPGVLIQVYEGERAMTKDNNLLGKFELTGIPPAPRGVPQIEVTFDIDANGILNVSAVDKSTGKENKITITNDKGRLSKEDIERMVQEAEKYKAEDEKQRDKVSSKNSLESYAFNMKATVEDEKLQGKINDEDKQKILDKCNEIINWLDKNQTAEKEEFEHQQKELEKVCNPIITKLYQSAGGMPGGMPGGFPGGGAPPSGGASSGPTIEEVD
UniProt Q02880: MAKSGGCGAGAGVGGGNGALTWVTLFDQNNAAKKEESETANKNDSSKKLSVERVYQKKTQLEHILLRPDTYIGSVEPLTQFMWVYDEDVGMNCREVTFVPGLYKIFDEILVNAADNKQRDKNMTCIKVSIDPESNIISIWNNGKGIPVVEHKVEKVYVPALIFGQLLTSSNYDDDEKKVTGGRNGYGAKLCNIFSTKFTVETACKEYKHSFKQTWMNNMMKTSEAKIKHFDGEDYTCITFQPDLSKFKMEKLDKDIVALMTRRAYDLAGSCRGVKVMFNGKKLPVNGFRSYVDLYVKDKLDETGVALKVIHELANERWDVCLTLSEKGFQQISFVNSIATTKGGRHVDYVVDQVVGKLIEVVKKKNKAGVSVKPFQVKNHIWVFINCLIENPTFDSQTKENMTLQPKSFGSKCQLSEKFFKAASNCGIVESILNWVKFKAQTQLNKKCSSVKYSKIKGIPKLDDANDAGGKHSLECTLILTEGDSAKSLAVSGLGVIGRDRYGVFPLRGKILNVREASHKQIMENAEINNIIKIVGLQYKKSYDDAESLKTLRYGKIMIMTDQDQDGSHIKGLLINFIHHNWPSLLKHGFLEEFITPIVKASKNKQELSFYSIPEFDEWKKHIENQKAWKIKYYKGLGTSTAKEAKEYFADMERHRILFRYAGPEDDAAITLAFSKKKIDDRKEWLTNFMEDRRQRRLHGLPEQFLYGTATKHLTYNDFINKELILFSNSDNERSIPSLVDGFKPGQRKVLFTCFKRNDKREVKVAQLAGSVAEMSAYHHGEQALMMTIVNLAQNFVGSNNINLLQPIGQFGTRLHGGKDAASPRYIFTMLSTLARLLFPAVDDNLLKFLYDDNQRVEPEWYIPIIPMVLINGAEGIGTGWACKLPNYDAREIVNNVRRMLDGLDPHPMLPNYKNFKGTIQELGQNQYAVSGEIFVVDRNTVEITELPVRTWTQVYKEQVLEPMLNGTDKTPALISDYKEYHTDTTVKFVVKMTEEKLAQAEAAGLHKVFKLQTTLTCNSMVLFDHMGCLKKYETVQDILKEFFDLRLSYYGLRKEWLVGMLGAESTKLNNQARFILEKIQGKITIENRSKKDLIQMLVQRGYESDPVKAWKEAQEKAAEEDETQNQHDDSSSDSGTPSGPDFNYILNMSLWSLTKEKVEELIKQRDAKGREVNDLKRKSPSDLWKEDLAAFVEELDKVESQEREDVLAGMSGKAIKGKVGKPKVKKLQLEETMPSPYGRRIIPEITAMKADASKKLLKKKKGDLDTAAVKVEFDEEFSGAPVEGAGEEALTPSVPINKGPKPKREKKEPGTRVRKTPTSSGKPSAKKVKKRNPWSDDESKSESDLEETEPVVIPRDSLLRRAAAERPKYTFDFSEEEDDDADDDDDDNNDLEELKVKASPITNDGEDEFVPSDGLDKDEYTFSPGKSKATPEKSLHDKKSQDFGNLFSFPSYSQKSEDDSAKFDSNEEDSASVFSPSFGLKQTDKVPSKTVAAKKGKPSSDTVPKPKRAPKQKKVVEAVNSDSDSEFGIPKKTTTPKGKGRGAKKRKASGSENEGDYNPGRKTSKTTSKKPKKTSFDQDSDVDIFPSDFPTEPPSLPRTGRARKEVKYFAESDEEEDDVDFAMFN
UniProt P12956: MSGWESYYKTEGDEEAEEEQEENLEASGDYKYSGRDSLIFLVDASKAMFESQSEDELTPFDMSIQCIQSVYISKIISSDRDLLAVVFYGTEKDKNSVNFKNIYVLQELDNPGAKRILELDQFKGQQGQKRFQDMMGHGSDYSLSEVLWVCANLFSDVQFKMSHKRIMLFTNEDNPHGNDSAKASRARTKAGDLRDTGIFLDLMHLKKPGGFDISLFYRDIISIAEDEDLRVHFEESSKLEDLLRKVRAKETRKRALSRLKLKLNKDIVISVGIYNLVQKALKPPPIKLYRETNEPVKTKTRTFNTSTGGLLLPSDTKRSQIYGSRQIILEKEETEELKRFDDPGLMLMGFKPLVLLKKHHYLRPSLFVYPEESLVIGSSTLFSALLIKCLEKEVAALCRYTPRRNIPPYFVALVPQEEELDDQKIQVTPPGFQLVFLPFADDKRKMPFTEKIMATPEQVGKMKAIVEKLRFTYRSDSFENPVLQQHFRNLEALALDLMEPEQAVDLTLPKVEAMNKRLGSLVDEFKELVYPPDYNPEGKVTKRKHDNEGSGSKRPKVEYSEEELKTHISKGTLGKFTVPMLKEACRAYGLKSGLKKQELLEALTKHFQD
UniProt Q07955: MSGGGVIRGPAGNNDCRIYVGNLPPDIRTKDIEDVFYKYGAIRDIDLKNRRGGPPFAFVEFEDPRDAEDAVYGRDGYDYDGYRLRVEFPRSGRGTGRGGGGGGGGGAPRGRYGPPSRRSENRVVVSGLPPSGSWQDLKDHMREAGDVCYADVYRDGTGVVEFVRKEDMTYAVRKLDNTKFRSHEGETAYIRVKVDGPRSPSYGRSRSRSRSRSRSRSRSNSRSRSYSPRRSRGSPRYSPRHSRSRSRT
UniProt P23284, residues 34-216: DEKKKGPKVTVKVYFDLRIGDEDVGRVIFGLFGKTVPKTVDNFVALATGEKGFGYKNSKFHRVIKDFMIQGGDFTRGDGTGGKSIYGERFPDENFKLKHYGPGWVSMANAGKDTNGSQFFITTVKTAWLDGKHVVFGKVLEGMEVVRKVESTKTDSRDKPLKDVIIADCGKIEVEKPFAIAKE
UniProt P35637: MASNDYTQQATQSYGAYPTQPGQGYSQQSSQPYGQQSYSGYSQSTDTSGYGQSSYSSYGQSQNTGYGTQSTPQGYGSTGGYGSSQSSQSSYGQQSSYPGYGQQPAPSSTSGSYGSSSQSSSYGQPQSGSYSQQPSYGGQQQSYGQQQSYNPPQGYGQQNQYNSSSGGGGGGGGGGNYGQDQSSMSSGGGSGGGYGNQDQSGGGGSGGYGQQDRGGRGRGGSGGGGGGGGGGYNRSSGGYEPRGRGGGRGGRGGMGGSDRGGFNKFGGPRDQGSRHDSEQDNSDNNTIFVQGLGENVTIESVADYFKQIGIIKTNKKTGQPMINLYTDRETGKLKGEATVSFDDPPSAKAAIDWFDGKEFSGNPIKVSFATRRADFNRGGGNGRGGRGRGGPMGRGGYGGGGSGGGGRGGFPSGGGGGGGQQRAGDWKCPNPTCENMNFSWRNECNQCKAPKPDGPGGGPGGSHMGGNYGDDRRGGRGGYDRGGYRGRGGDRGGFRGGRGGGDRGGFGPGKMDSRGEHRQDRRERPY

B1: Splicing factor, arginine/serine-rich 7 (protein, UniProt Q16629 1-238)
chain: MSRYGRYGGETKVYVGNLGTGAGKGELERAFSYYGPLRTVWIARNPPGFAFVEFEDPRDAEDAVRGLDGKVICGSRVRVELSTGMPRRSRFDRPPARRPFDPNDRCYECGEKGHYAYDCHRYSRRRRSRSRSRSHSRSRGRRYSRSRSRSRGRRSRSASPRRSRSISLRRSRSASLRRSRSGSIKGSRYFQSPSRSRSRSRSISRPRSSRSKSRSPSPKRSRSPSGSPRRSASPERMD
B2: Nonhistone chromosomal protein HMG 14 (protein, UniProt P05114 1-100)
chain: MPKRKVSSAEGAAKEEPKRRSARLSAKPPAKVEAKPKKAAAKDKSSDKKVQTKGKRGAKGKQAEVANQETKEDLPAENGETKTEESPASDEAGEKEAKSD

Target: T1, C-terminal FLAG-tagged COUP-TFII (pIRES-COUP-TFII-FLAG), expressed in MCF-7 cells (human)
Experiment: affinity purification with mass spectrometry; 1 mg whole cell extract of MCF-7 cells transfected 24 h with pIRES-COUP-TFII-FLAG on anti-FLAG M2 agarose, overnight (~16 h) at 4°C; serial elution with 0.1 M glycine pH 3.5 (15 min at room temperature, then 5 min at 95°C); MudPIT; proteins of the empty-vector control subtracted

binding, binds:
Histone H1.0 (from UniProt P07305 1-194)
Poly [ADP-ribose] polymerase 1 (PARP-1) (from UniProt P09874 1-1014)
DNA topoisomerase 1 (from UniProt P11387 1-765)
Splicing factor, arginine/serine-rich 9 (from UniProt Q13242 1-221)
Antigen KI-67 (from UniProt P46013 1-3256)
Regulator of chromosome condensation (from UniProt P18754 1-421)
Heat shock cognate 71 kDa protein (from UniProt P11142 1-646)
DNA topoisomerase 2-beta (TopoIIβ) (from UniProt Q02880 1-1626)
ATP-dependent DNA helicase 2 subunit 1 (from UniProt P12956 1-609)
Splicing factor, arginine/serine-rich 1 (from UniProt Q07955 1-248)
Peptidyl-prolyl cis-trans isomerase B (from UniProt P23284 34-216)
RNA-binding protein FUS (from UniProt P35637 1-526)
ATP-dependent DNA helicase 2 subunit 2 (from UniProt P13010 1-732)
B1
B2

— article PMC3365040
